# Measured values reported in patent US7560473B2 (Institute of Pharmacology and Toxicology Academy of …, priority 2001, dated 2009).
# At least one compound was matched to its structure with a doubt left.
# Test system: SHRsp
# Experiment: Prophylaxis and treatment of SHRsp cerebral apoplexy
# Format: in vivo, rats
# Protocol: Biological activity experiment 8 the prophylaxis and treatment of cerebral apoplexy with compound 1 of formula Ia
# The methods of biological activity experiments were carried out as follows: Desired concentration of compound 1 was prepared with distilled water, while desired concentration of nimodipine was prepared with market available Jinglongyu^T oil. 30 male and 30 female SHRsp (10 weeks old, 120-180 g) were purchased from the vascular disease research center of Academy of Military Medical Science. All SHRsp were divided randomly into five groups based on blood pressure, body weight and sex: control group (fed with equal amount of Jinglongyu^T oil), […], […], […], and 4.0 mg.kg^−1d^−1 nimodipine treated group. Each group contained 12 animals and 4-5 animals were fed in a cage. The feedstaff (containing 23-24% protein) was purchased from experimental animal center of Academy of Military Medical Science. The animals were fed with tap water containing 1% NaCl to accelerate the onset of cerebral apoplexy. 12 normal WKY rats (with the same age and sex with the above) were selected as control, and fed with tap water and the same feedstuff. When reached 11 weeks old, the animals were fed with drugs for experiments.
compound,measurement,value
"COCCOC(=O)C1=C(C)NC(C)=C(C(=O)OC(C)C)C1c1cccc([N+](=O)[O-])c1 (stereo not shown) [Nimodipine, nimodipine, reference compound]",nerve symptom of cerebral apoplexy (in words),significantly improve the nerve symptom
